Source: patent US20230340112A1
No constants are given. Whether binding was seen depends on the method and setting. Some entries that bind do so weakly or less than the wild type.

The chains behind the UniProt entries cited, without tags or fusion partners. Where a name states a change or a piece, a line headed by the entry shows the natural chain unless it says otherwise.
UniProt P78324: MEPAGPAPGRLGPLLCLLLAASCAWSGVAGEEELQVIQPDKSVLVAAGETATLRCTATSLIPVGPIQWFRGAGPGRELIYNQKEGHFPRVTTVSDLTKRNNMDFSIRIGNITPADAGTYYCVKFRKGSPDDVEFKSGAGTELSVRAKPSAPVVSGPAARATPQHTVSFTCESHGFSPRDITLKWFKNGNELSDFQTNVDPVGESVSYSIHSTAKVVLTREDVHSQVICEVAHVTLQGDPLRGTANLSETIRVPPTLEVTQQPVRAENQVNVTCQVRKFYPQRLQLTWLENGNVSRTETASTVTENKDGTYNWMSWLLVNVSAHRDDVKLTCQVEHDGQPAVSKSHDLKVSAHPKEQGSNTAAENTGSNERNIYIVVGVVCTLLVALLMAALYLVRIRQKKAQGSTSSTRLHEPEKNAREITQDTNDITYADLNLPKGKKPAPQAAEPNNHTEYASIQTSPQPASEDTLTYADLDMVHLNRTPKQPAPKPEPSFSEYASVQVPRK

B1: antibody 14H2B (antibody, V domains shown)
VH: EVQLVESGGGLVQPGGSLRLSCAASGIDLSSYSMIWVRQAPGKGLEWIGIIYTGGSTDYASWAKGRFTISRDNSKNTLYLQMNSLRAEDTAVYYCARENSHDTFDPWGQGTLVTVSS
VL: DIQMTQSPSSLSASVGDRVTITCQSSQSVYTNYQSWYQQKPGKAPKLLIYAASTLASGVPSRFSGSGSGTDFTLTISSLQPEDFATYYCLGSYVSSGWYYAFGGGTKVEIK
B2: antibody 89H (antibody, V domains shown)
VH: EVQLVESGGGLVQPGGSLRLSCAASGFSLSTYAMIWVRQAPGKGLEWVGIISPSGTTYYATWAKGRFTISRDNSKNTLYLQMNSLRAEDTAVYYCARAGSGGWDYFNIWGQGTLVTVSS
VL: DIQMTQSPSSLSASVGDRVTITCQASQSISSYLSWYQQKPGKAPKLLIYYASNLASGVPSRFSGSGSGTDFTLTISSLQPEDFATYYCQSYYYSNNYNWAFGGGTKVEIK

Target: SIRPα-His (human) (UniProt P78324)
Experiment: chemical cross-linking and nLC-Orbitrap MS/MS of the complex

| Binder | binding |
| --- | --- |
| B1 | binds |
| B2 | binds |
